Results are given in words; binding and its absence hold for the method and conditions named. Some binding calls cover weakened binding; strength is not graded here. For some assays here: Sequences can lack the tags named with a protein.
Assays:
[1] = biological target: T1, BSA coupled 37-mer Cad-11 peptide encompassing the Cad-11 immunogen (UniProt P55287); test: ELISA, cadherin peptide coated at 50 ng/ml, antibody titrated, A450
T1 sequence (peptide, linked to BSA, looked up): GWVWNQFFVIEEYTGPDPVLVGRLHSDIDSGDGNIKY

[2] = biological target: T2, recombinant Cad-11 EC1 human IgG1 fusion protein (R&D Systems Cat. No. 1790-CA-050) (human) (UniProt P55287); test: competition ELISA on coated recombinant human Cad-11 EC1 fusion protein; competitor biotinylated SYN0012 at 0.1 µg/ml, streptavidin-HRP, OD450
T2 sequence: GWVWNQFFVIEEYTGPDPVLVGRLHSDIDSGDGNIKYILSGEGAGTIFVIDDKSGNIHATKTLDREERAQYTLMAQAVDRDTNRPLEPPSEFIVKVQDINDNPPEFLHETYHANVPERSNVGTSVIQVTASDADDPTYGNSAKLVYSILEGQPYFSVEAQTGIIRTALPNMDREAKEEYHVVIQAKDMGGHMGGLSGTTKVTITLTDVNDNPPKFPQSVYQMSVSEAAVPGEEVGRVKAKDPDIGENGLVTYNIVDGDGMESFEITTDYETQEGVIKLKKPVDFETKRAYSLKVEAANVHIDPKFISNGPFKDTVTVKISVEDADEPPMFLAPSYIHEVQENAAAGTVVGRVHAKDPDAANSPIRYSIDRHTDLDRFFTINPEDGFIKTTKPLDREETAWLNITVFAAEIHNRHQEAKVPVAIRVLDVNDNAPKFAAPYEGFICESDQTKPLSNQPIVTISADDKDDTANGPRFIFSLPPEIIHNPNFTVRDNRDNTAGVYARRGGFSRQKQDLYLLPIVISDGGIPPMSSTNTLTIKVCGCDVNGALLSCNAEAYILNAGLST

[3] = biological target: T3, recombinant his-tagged human Cad-11 (R&D Systems) (human) (UniProt P55287); test: SPR, rhCad-11 immobilised on the chip, SDP051 injected
T3 sequence: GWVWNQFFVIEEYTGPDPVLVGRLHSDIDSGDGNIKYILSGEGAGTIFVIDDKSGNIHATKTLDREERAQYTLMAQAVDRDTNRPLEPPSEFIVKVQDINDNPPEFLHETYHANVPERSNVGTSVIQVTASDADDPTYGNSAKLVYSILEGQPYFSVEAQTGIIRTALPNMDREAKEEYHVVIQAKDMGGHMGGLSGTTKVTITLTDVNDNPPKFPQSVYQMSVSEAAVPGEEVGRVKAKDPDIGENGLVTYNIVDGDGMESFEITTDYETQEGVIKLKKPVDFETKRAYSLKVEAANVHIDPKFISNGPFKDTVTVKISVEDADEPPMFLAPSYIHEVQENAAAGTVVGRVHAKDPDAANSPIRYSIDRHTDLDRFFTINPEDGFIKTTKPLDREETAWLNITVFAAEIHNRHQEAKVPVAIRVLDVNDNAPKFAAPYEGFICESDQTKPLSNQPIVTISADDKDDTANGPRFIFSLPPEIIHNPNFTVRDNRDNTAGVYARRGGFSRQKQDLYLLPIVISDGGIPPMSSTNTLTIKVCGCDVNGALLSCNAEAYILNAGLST

[4] = biological target: T1, BSA coupled 37-mer Cad-11 peptide encompassing the Cad-11 immunogen; test: ELISA, BSA-coupled 37-mer cadherin peptide coated at 500 ng/ml, antibody titrated, A450
[5] = biological target: T2, recombinant Cad-11 EC1 human IgG1 fusion protein (R&D Systems Cat. No. 1790-CA-050) (human); test: competition ELISA against biotinylated SYN0012

Measured: binding

B1: humanized anti-Cad-11 EC1 antibody SDP051 (Vκ1/VH5) (antibody, IgG4, V domains shown)
VH: EVQLVQSGAEVKKPGASVKVSCKASGYSFTGYFMNWVRQAPGQGLEWIGRINPYTGDTFYNQKFKGRVTITVDKSTSTAYMELSSLRSEDTAVYYCGRLGSRYWYFDVWGQGTTVTVSS
VL: DVLMTQTPLSSPVTLGQPASISCRSSQSIIHSNGNTYLEWYLQKPGQSPQLLIYKVSNRFSGVPDRFTGSGSGTDFTLKISRVEAEDVGVYYCFQGSHVPWTFGQGTKLEIK
notes: humanized IgG4 (S241P), kappa
binds: [1] | [2] | [3] | [4] | [5]
